Results deposited as PubChem BioAssay AID1259254 (NCATS, 2017)
The deposit covers about 59,000 reagents; this is a random part of them. Over the whole deposit, about 1,550 (2.6%) are marked active. 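G2 share is only a proxy for re-replication; each gene was hit by three separate siRNAs, and active genes were retested.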 The raw values are shown without normalisation. Reagents against one gene are numbered here. Not given: the amount of reagent.

Test: 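Genome-wide screen for genes that prevent DNA re-replication in cancer cells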 (primary screen)
Cell system: human HCT116 colorectal cancer cells
Reagents: single siRNA against human genes
Timing: 3 days
Read-out: 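Imaged Hoechst DNA stain sorts each cell into a cycle phase by DNA amount; per plate, G2 fraction set to 0% for non-targeting and 100% for GMNN siRNA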
Scale: G2 robust z-score and G2 cells, % of GMNN control: higher = more G2 cells, more excess DNA replication; raw share of cells in G2: higher = larger share of cells with G2 DNA content
Rule for the call: 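An siRNA counts as active if its G2 robust z-score lies at least 5 MADs above the screen median; here such calls match roughly 38% of GMNN control or more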

Target gene	siRNA no.	G2 robust z-score	G2 cells, % of GMNN control	raw share of cells in G2 (%)	Outcome
SLC35A4	1	0.124	3.84	5.63	inactive
SLC35A4	2	0.286	4.98	4.81	inactive
SLC35A4	3	-0.376	0.324	1.91	inactive
RGMB-AS1 (RGMB antisense RNA 1)	1	0.169	4.16	5.23	inactive
RGMB-AS1 (RGMB antisense RNA 1)	2	-0.733	-2.19	2.59	inactive
RGMB-AS1 (RGMB antisense RNA 1)	3	-0.0523	2.6	4	inactive
WDR81 (WD repeat domain 81)	1	-0.408	0.0952	4.13	inactive
WDR81 (WD repeat domain 81)	2	-0.301	0.851	3.58	inactive
WDR81 (WD repeat domain 81)	3	1.04	10.3	4.82	inactive
DHRS4L1 (dehydrogenase/reductase 4 like 1 (pseudogene))	1	-1.2	-5.5	1.54	inactive
DHRS4L1 (dehydrogenase/reductase 4 like 1 (pseudogene))	2	-0.0369	2.71	4.16	inactive
DHRS4L1 (dehydrogenase/reductase 4 like 1 (pseudogene))	3	-0.548	-0.89	3.59	inactive
GPX7 (glutathione peroxidase 7)	1	-0.837	-2.93	4.17	inactive
GPX7 (glutathione peroxidase 7)	2	-0.388	0.234	3.74	inactive
GPX7 (glutathione peroxidase 7)	3	-0.976	-3.9	3.78	inactive
RGS10 (regulator of G protein signaling 10)	1	5.06	38.6	18.3	active
RGS10 (regulator of G protein signaling 10)	2	-0.288	0.938	4.46	inactive
RGS10 (regulator of G protein signaling 10)	3	0.942	9.59	8.34	inactive
PLA2G12B (phospholipase A2 group XIIB)	1	0.4	5.78	7.84	inactive
PLA2G12B (phospholipase A2 group XIIB)	2	1.21	11.5	8.34	inactive
PLA2G12B (phospholipase A2 group XIIB)	3	-0.378	0.308	4.9	inactive
PKD1L1-AS1 (PKD1L1 antisense RNA 1)	1	0.131	3.89	3.44	inactive
PKD1L1-AS1 (PKD1L1 antisense RNA 1)	2	-0.847	-2.99	3.2	inactive
PKD1L1-AS1 (PKD1L1 antisense RNA 1)	3	0.719	8.02	7.81	inactive
HULC (hepatocellular carcinoma up-regulated long non-coding RNA)	1	0.73	8.1	7.03	inactive
HULC (hepatocellular carcinoma up-regulated long non-coding RNA)	2	-1.02	-4.19	1.96	inactive
HULC (hepatocellular carcinoma up-regulated long non-coding RNA)	3	-0.402	0.138	3.16	inactive
CD28 (CD28 molecule)	1	0.162	4.1	6.43	inactive
CD28 (CD28 molecule)	2	0.395	5.74	6.07	inactive
CD28 (CD28 molecule)	3	0.345	5.39	6.96	inactive
KLF1 (KLF transcription factor 1)	1	-0.297	0.881	3.82	inactive
KLF1 (KLF transcription factor 1)	2	-0.386	0.252	6.1	inactive
KLF1 (KLF transcription factor 1)	3	-0.134	2.02	4.19	inactive
TMEM235 (transmembrane protein 235)	1	-0.0335	2.73	4.1	inactive
TMEM235 (transmembrane protein 235)	2	-0.89	-3.29	2.27	inactive
TMEM235 (transmembrane protein 235)	3	1.1	10.7	7.54	inactive
DIPK1B (divergent protein kinase domain 1B)	1	-0.125	2.09	3.34	inactive
DIPK1B (divergent protein kinase domain 1B)	2	-0.763	-2.4	3.27	inactive
DIPK1B (divergent protein kinase domain 1B)	3	-0.353	0.481	3.25	inactive
YIPF3 (Yip1 domain family member 3)	1	4.88	37.3	18.4	inactive
YIPF3 (Yip1 domain family member 3)	2	-0.235	1.32	4.51	inactive
YIPF3 (Yip1 domain family member 3)	3	-0.525	-0.73	3.04	inactive
MYO18A (myosin XVIIIA)	1	2.26	18.8	11.2	inactive
MYO18A (myosin XVIIIA)	2	-1.06	-4.5	3.96	inactive
MYO18A (myosin XVIIIA)	3	-0.812	-2.75	3.89	inactive
TEKT1 (tektin 1)	1	-0.0827	2.39	6.42	inactive
TEKT1 (tektin 1)	2	-0.713	-2.05	3.45	inactive
TEKT1 (tektin 1)	3	-1.18	-5.31	2.82	inactive

Ordered by “G2 robust z-score” (highest first): some entries from above
Target gene	siRNA no.	G2 robust z-score	G2 cells, % of GMNN control	raw share of cells in G2 (%)	Outcome
RGS10 (regulator of G protein signaling 10)	1	5.06	38.6	18.3	active
PLA2G12B (phospholipase A2 group XIIB)	2	1.21	11.5	8.34	inactive
RGS10 (regulator of G protein signaling 10)	3	0.942	9.59	8.34	inactive
PLA2G12B (phospholipase A2 group XIIB)	1	0.4	5.78	7.84	inactive
PKD1L1-AS1 (PKD1L1 antisense RNA 1)	1	0.131	3.89	3.44	inactive
RGS10 (regulator of G protein signaling 10)	2	-0.288	0.938	4.46	inactive
PLA2G12B (phospholipase A2 group XIIB)	3	-0.378	0.308	4.9	inactive
GPX7 (glutathione peroxidase 7)	3	-0.976	-3.9	3.78	inactive
